Among all 200,000 compounds or so, about 25 (0.01%) were called active. The inconclusive results got no clear call from the source; some entries with a clear call stand among them for comparison. Calls come from the whole dose curve; as a rule, active = well fitted inhibition curve with a large enough effect in the signal ratio, with a control signal flat (not every such curve was filed as active); inconclusive = small, poorly fitted or top-dose-only effect, or effect the other way, or a change in a side signal; inactive = flat fitted curve, though single readings scatter; the % refers to the signal ratio. Where the call is inconclusive, the potency comes from a doubtful curve fit.
Assay: qHTS Assay for Modulators of Lamin A Splicing
Conditions: HeLa LMNA splicing GFP/RFP minigene ratio, 48 h; ratio change, negative = inhibition: at 46.1 µM (top of the series) unless noted
How it was run: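 S3 HeLa cells stably expressing lamin A-EGFP splicing minigene plus DsRed2, 600 cells/well, 48 h compound exposure at 37C. Laser-scanning cytometry; analysed as GFP (500-530 nm)/RFP (575-640 nm) total intensity ratio; 0.5% DMSO vehicle.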
% is set by controls: 0 for no effect and ±100 for the full control effect; potency is the fitted concentration of half-maximal effect.

Row | SMILES | ratio change, negative = inhibition | Potency
1 | CC(CNC(=O)c1ccc(Cn2c(SCc3ccccc3)nc3cccnc32)cc1)c1ccccc1 (stereo unspecified) | inactive: -12.6% [at 46 µM] | 
2 | NC(N)=N/N=C/c1ccc(OCc2ccccc2Cl)cc1 | inconclusive: -1.94% | 
3 | CCCCOc1ccc(C(=O)NC(=S)Nc2ccc(CN3CCOCC3)cc2)cc1 | inactive: -6.59% | 
4 | S=C(Nc1ccc(Br)cc1)NC1CCCC1 | inconclusive: -12.6% | 
5 | CC(C)NC(=O)c1nn(C)c2c1CS(=O)(=O)c1ccccc1-2 | inactive: 26.3% [at 46 µM] | 
6 | Cn1c(C(=O)OC(C(=O)NC(C)(C)C)c2cccnc2)cc2sccc21 (stereo unspecified) | inconclusive: 8.2% [at 46 µM] | 
7 | CCn1c(CSc2nc(C)cs2)nc2cc(S(=O)(=O)N(C)C)ccc21 | inconclusive: -9.97% | 
8 | COc1ccccc1CNc1nc(-c2ccco2)nn1S(=O)(=O)c1ccc(C)cc1 | inconclusive: 1.77% [at 46 µM] | 
9 | CC(=O)Nc1ccc2nc(SCc3ccccc3)sc2c1 | inconclusive: 38.1% [at 46 µM] | 
10 | O=C(Cn1cnc2c(oc3ccccc32)c1=O)N1CCCc2ccccc21 | inconclusive: 11.8% | 
11 | O=C(c1ccc(F)cc1)N1c2ncnn2C2(CCCCC2)[C@@H]2CCCC[C@@H]21 | inconclusive: -26.1% [at 46 µM] | 
12 | COc1ccc(CN(C)C(=S)Nc2ccc(Cl)cc2Cl)cc1 | inconclusive: -6.08% [at 46 µM] | 
13 | COC(=O)Cc1c(OC)ccn(CCc2c[nH]c3ccccc23)c1=O | inconclusive: 16.4% [at 46 µM] | 
14 | Cc1ccccc1NC(=S)NCc1cccn1C | inactive: -9.77% | 
15 | CCN(CC(=O)Nc1ccc(N2CCOCC2)cc1)C(=O)c1ccc(C(F)(F)F)cc1 | inconclusive: -2.01% [at 46 µM] | 
16 | COC(=O)c1cc(=O)n(CCc2ccc(OC)c(OC)c2)c(=Nc2ccc(F)c(Cl)c2)s1 |  | inconclusive: 35.5 µM [cytotoxic, single point]
17 | CCc1ccc(Sc2cc(C(=O)NCCCN3CCCC(C)C3)c3ccccc3n2)cc1 (stereo unspecified) |  | inconclusive: 14.1 µM [inhibitor, single point]
18 | O=C(N/N=C/c1ccc(OCC(=O)N2CCCCC2)cc1)c1ccccc1 | inactive: 0.563% | 
19 | CC(C)Cc1nc2oc3c(Cl)ncnc3c2c2c1CCC2 |  | inconclusive: 25.1 µM [cytotoxic, partial curve]
20 | CC(C)OC(=O)CC(=O)CSc1nc2c(cc1C#N)CCC2 | inconclusive: 18.1% | 
21 | CC(=O)c1cc2ccccc2oc1=O | inconclusive: -4.83% | 

Row | SMILES | ratio change, negative = inhibition | Potency
22 | CCCCSCCCNC(=O)c1cc(-c2cccnc2)nc2ccc(S(=O)(=O)N3CCC(C)CC3)cc12 | inactive: 6.87% [at 46 µM] | 
23 | CCOC(=O)C1CCN(C(=O)c2n[nH]c(=O)c3ccccc23)CC1 | inconclusive: -17.6% | 
24 | CCCCCOC(=O)C(C)c1c(C)[nH]c(=S)[nH]c1=O (stereo unspecified) | inactive: -20.7% | 
25 | CNc1ccc(/C=C/C(=O)c2ccc(C)cc2)cc1[N+](=O)[O-] | inconclusive: 39.4% | 
26 | CCOc1ccc(-c2cc(C(=O)N3CCN(c4ccc(C)cc4)C(C)C3)c3ccccc3n2)cc1 (stereo unspecified) | inactive: -14.8% [at 46 µM] | 
27 | CC(Oc1ccccc1)c1ccnc2nc(N3CCOCC3)nn12 (stereo unspecified) |  | inconclusive: 35.5 µM [cytotoxic, single point]
28 | CC(C)(C)c1ccc(C(=O)CC(Sc2ccc(Cl)cc2)C(=O)O)cc1 (stereo unspecified) |  | inconclusive: 5.62 µM [inhibitor, single point]
29 | Cc1ccc(S(=O)(=O)N2CCOCC2)cc1NC(=O)COC(=O)CNC(=O)c1ccc(C(C)(C)C)cc1 | inactive: 5.88% | 
30 | Cn1nc(-c2ccc(Cl)cc2)c2cc(C(=O)N3CCOCC3)sc21 | inactive: 0.765% | 
31 | CCN(CC)CCNC(=O)CNC(=S)N(CCCN1CCOCC1)Cc1cccs1 | inconclusive: -8.63% [at 46 µM] | 
32 | Cc1ccc(C(=O)C(C)Sc2nnc(N)s2)cc1 (stereo unspecified) | inconclusive: -17.9% [at 46 µM] | 
33 | CC1=C(C(=O)OC(C)C)C(c2ccc(N(C)C)cc2)C2=C(CC(C)(C)CC2=O)N1 (stereo unspecified) | inactive: -5.68% | 
34 | COc1ccc(NC(=O)COc2ccc(N(C)S(=O)(=O)c3ccc(C)cc3)cc2)cc1 | inconclusive: -50.6% | 
35 | COC(=O)c1nn(-c2nc(-c3ccc(OC)c(OC)c3)cc(C(F)(F)F)n2)cc1[N+](=O)[O-] | inconclusive: 16.8% [at 46 µM] | 
36 | COC(=O)c1sccc1S(=O)(=O)N(CC(=O)NCc1ccccc1)c1ccc(C)cc1 | inconclusive: -19.9% [at 46 µM] | 
37 | Cc1ccc(S(=O)(=O)c2nc(Nc3nccs3)sc2Cl)cc1 |  | inconclusive: 5.62 µM [falling, single point]
38 | CCCc1cc(=O)[nH]c(SCC(=O)c2cc(C)n(CCOC)c2C)n1 | inconclusive: 13.3% | 
39 | CC(=O)NC1(c2ccccc2)CCN(c2nc(C)cc(C)n2)CC1 | inactive: 1.55% | 
40 | COc1ccc(NC(C)=O)cc1NC(=O)CN1CCN(S(=O)(=O)c2ccc(C(C)C)cc2)CC1 | inactive: -1.23% | 
41 | O=C(N/N=C/c1cc(Cl)cc([N+](=O)[O-])c1O)C1CC1 |  | inconclusive: 25.1 µM [rising, single point]
42 | CCn1c(SCC(=O)NC2CCS(=O)(=O)C2)nnc1-c1ccccc1 (stereo unspecified) | inactive: -0.801% [at 46 µM] | 

Row | SMILES | ratio change, negative = inhibition | Potency
43 | COc1ccccc1Nc1nc(-c2sc(NC(=O)C(C)(C)C)nc2C)cs1 |  | inconclusive: 22.4 µM [falling, single point]
44 | Cc1ccccc1-c1nccc(-n2ccnc2)n1 | inactive: -8.77% | 
45 | COC(=O)Nc1ccc(OCc2ccccc2)cc1 | inactive: -3.83% | 
46 | O=S(=O)(Nc1ccc(N2CCCCC2)cc1)c1ccccc1 |  | inconclusive: 35.5 µM [falling, partial curve, poor fit]
47 | COc1ccc(-c2nc(C(F)(F)F)c(OC)o2)cc1OC | inactive: -7.83% | 
48 | COCCN1C(=O)N[C@@H](c2ccc(Br)cc2)C(C(C)=O)=C1C | inconclusive: -0.543% | 
49 | CCCOc1cccc(-c2nc3ccccc3c(=O)o2)c1 | inconclusive: -22% [at 46 µM] | 
50 | Cc1ccccc1NC(=O)NC1(C(=O)N2CCCC2)CCCCC1 | inactive: 5.21% [at 46 µM] | 
51 | O=C1CC(N2CCSCC2)C(=O)N1c1ccccc1 (stereo unspecified) | inconclusive: 3.83% [at 46 µM] | 
52 | CCOc1cc(/C=N/Nc2cccc(C(=O)O)c2)ccc1OC(=O)c1ccccc1 | inactive: -6.43% [at 1.84 µM] | 
53 | Cc1cccc(OCCSc2nc3ccc(NC(=O)COc4ccccc4F)cc3s2)c1 | inconclusive: -5.26% [at 46 µM] | 
54 | CCCCCC(=O)NNC1=NCC(Cc2cccc(Cl)c2)S1 (stereo unspecified) | inconclusive: -1.55% [at 46 µM] | 
55 | O=C(CSc1nc(=O)[nH]c2c1CCC2)NCc1ccc(Cl)cc1 | inactive: -10.6% [at 46 µM] | 
56 | Cc1ccc2c(c1)c1c3n2CCCN(Cc2ccccc2)C3CCC1 (stereo unspecified) | inconclusive: -11.9% | 
57 | COC(=O)C1=C(C(=O)OC)[C@@H]2N(Cc3ccccc3)c3ccccc3[C@@]23C[C@@H](C(=O)OC)N(S(=O)(=O)c2ccc(C)cc2)C3=N1 | inactive: 5.77% [at 9.22 µM] | 
58 | O=[N+]([O-])c1ccc(Cl)c(C2Nc3cccc4cccc(c34)N2)c1 | inconclusive: -13.5% | 
59 | Cc1ccccc1C(=O)NCCSc1ccccc1 | inactive: 17.3% | 
60 | O=C(Nc1ncc(Cc2ccccc2Cl)s1)C1=NCCN1 |  | inconclusive: 22.4 µM [falling, partial curve]
61 | O=C(NCc1ccc2c(c1)CCN2C(=O)c1ccc(Cl)cc1)c1ccco1 | inconclusive: 12.3% [at 46 µM] | 
62 | CCN1CCN(CCNC(=O)c2ccc(/C=C3/Sc4ccccc4N(Cc4ccccc4C)C3=O)cc2)CC1 |  | inconclusive: 25.1 µM [rising, partial curve]
63 | CCOC(=O)c1noc2nc(C)n(CC(=O)Nc3ccc(OC)c(Cl)c3)c(=O)c12 | inconclusive: 21.8% [at 46 µM] | 

Numbers 43–61 of the list above:
Row | SMILES | ratio change, negative = inhibition | Potency
43 | COc1ccccc1Nc1nc(-c2sc(NC(=O)C(C)(C)C)nc2C)cs1 |  | inconclusive: 22.4 µM [falling, single point]
44 | Cc1ccccc1-c1nccc(-n2ccnc2)n1 | inactive: -8.77% | 
45 | COC(=O)Nc1ccc(OCc2ccccc2)cc1 | inactive: -3.83% | 
46 | O=S(=O)(Nc1ccc(N2CCCCC2)cc1)c1ccccc1 |  | inconclusive: 35.5 µM [falling, partial curve, poor fit]
47 | COc1ccc(-c2nc(C(F)(F)F)c(OC)o2)cc1OC | inactive: -7.83% | 
48 | COCCN1C(=O)N[C@@H](c2ccc(Br)cc2)C(C(C)=O)=C1C | inconclusive: -0.543% | 
49 | CCCOc1cccc(-c2nc3ccccc3c(=O)o2)c1 | inconclusive: -22% [at 46 µM] | 
50 | Cc1ccccc1NC(=O)NC1(C(=O)N2CCCC2)CCCCC1 | inactive: 5.21% [at 46 µM] | 
51 | O=C1CC(N2CCSCC2)C(=O)N1c1ccccc1 (stereo unspecified) | inconclusive: 3.83% [at 46 µM] | 
52 | CCOc1cc(/C=N/Nc2cccc(C(=O)O)c2)ccc1OC(=O)c1ccccc1 | inactive: -6.43% [at 1.84 µM] | 
53 | Cc1cccc(OCCSc2nc3ccc(NC(=O)COc4ccccc4F)cc3s2)c1 | inconclusive: -5.26% [at 46 µM] | 
54 | CCCCCC(=O)NNC1=NCC(Cc2cccc(Cl)c2)S1 (stereo unspecified) | inconclusive: -1.55% [at 46 µM] | 
55 | O=C(CSc1nc(=O)[nH]c2c1CCC2)NCc1ccc(Cl)cc1 | inactive: -10.6% [at 46 µM] | 
56 | Cc1ccc2c(c1)c1c3n2CCCN(Cc2ccccc2)C3CCC1 (stereo unspecified) | inconclusive: -11.9% | 
57 | COC(=O)C1=C(C(=O)OC)[C@@H]2N(Cc3ccccc3)c3ccccc3[C@@]23C[C@@H](C(=O)OC)N(S(=O)(=O)c2ccc(C)cc2)C3=N1 | inactive: 5.77% [at 9.22 µM] | 
58 | O=[N+]([O-])c1ccc(Cl)c(C2Nc3cccc4cccc(c34)N2)c1 | inconclusive: -13.5% | 
59 | Cc1ccccc1C(=O)NCCSc1ccccc1 | inactive: 17.3% | 
60 | O=C(Nc1ncc(Cc2ccccc2Cl)s1)C1=NCCN1 |  | inconclusive: 22.4 µM [falling, partial curve]
61 | O=C(NCc1ccc2c(c1)CCN2C(=O)c1ccc(Cl)cc1)c1ccco1 | inconclusive: 12.3% [at 46 µM] | 

More results follow.

Row | SMILES | ratio change, negative = inhibition | Potency
64 | O=C(Nc1cc(S(=O)(=O)N2CCCCC2)ccc1Cl)c1ccccc1NS(=O)(=O)c1ccc(F)cc1 | inconclusive: -15.2% | 
65 | Cc1cccc(C(=O)N2CCC(=O)N(C(COCc3cccc(C(F)(F)F)c3)Cc3ccccc3)CC2)c1 (stereo unspecified) |  | inconclusive: 35.5 µM [fluorescent, single point]
66 | CCC1(C)CC(=O)N(c2ccc(C(=O)O)c(O)c2)C1=O (stereo unspecified) | inactive: -1.32% | 
67 | CCOC(=O)c1ccc(NC(=O)CSc2nc3c([nH]c4ccccc43)c(=O)n2C)cc1 | inconclusive: 174% [at 46 µM] | 
68 | CC1=Nc2ccc(C)cc2/C1=C/c1c(N)n2oc(C)cc2nc1=O | inconclusive: 6.63% [at 46 µM] | 
69 | O=S(=O)(c1ccccc1)n1nc(-c2ccccc2)nc1NCc1ccco1 |  | inconclusive: 20 µM [fluorescent, single point]
70 | Cc1ccc(SCC(=O)NCc2ccc(F)cc2)cc1 | inactive: -6.89% [at 46 µM] | 
71 | COc1cc(NC(=S)NCc2cccs2)cc(OC)c1 | inactive: 4.84% | 
72 | c1cncc(CNc2cccc(-c3nc4ccccc4[nH]3)c2)c1 | inconclusive: -46.6% | 
73 | CCCOC(=O)c1ccc(O)cc1 | inconclusive: 13.5% | 
74 | O=C(CSc1ncnc2nc[nH]c12)N1CCN(c2ccc(Cl)cc2)CC1 |  | inconclusive: 10 µM [fluorescent, partial curve]
75 | CN(C)CCNC(=O)c1sc2cccc(F)c2c1Cl | inconclusive: 4.69% [at 46 µM] | 
76 | O=C(Cn1cc(C(F)(F)F)ccc1=O)N/N=C/c1ccc(F)cc1 | inconclusive: 6.1% [at 46 µM] | 
77 | CCCn1c(SCC(=O)OCC)nc(C(F)(F)F)cc1=O | inconclusive: 30.7% [at 46 µM] | 
78 | O=C1NC(=S)SC1=C1CCCC1 | inactive: 14.9% | 
79 | COc1cccc(NS(=O)(=O)c2ccc3c(c2)CCCN3C(=O)C2CCC2)c1 | inconclusive: -14.5% [at 46 µM] | 
80 | CCOC(=O)c1cnc2ccc(OC)cc2c1Nc1ccc2c(c1)OCCO2 | inconclusive: -26.6% | 
81 | CCCCCCCC1=Cc2ccc(F)cc2C(C(C(C)=O)C(=O)OC)N1C(=O)OC (stereo unspecified) | inactive: 5.59% [at 9.22 µM] | 

Source: PubChem BioAssay AID1487 (National Center for Advancing Translational Sciences (NCATS), 2009)
